Several values for one entry are separate records, joined by “and”; a condition that tells them apart may be missing. Equal entries are not always repeated. Among all 240,000 compounds or so, about 1,300 (0.54%) were called active. Inconclusive means that the source gave no clear call. Such entries were picked first, then a sample of the others. The call rests on the fitted dose curve; in most records, active means well fitted inhibition curve with a large enough effect; inconclusive means small, poorly fitted or top-dose-only effect; inactive means flat fitted curve, though single readings scatter. Potencies of inconclusive entries are doubtful fits and often do not repeat.
Biological target: ATP-dependent DNA helicase Q1 (Homo sapiens) (UniProt P46063)
Test: qHTS Assay for Inhibitors of RecQ-Like Dna Helicase 1 (RECQ1); further: nearly all actives have a fitted effect of over 30% in size
Settings: RECQ1 DNA unwinding, red fluorescence kinetic read; series mostly up to 57.3 µM
How it was run: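 50 nM RECQ1T1 preincubated 15 min with compound in Tris pH 8.0 buffer with MgCl2, DTT, Tween-20 and 2.5 ug/ml poly(dI-dC); started with 200 nM TAMRA/BHQ-2 forked duplex and 2 mM ATP. Unwinding read as fluorescence (525/598 nm), two reads 2 h apart.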
Potency means the concentration at half of the fitted maximal effect.

Protein sequences, listed by entry. Tags and fused reporters are not part of them. Lines headed by an entry give the natural chain unless they say otherwise; changes in a name come on top.
UniProt P46063: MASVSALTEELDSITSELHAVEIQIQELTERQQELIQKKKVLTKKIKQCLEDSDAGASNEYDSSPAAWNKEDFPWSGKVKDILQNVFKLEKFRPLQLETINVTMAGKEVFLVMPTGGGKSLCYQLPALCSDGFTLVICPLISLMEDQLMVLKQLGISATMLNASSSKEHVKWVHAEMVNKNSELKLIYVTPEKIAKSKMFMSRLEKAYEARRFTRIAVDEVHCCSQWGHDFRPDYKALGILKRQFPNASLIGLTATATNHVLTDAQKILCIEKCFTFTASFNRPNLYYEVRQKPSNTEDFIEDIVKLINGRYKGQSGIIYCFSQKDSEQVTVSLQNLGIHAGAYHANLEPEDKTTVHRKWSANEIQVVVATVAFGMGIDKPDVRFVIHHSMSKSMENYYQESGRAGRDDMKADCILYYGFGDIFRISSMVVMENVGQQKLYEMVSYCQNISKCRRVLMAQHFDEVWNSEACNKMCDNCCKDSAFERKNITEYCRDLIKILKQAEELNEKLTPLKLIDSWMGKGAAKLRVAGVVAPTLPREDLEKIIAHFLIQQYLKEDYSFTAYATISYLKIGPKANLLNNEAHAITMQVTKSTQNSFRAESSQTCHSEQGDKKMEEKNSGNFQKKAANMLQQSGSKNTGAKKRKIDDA

| SMILES | Potency |
| --- | --- |
| O=C(C1CC1)N1CCc2cc(Br)cc(S(=O)(=O)N3CCOCC3)c21 | inconclusive: 35.5 µM [inhibitor, partial curve] |
| N#C/C(=C/c1ccco1)C(N)=S | inconclusive: 35.5 µM [inhibitor, single point] |
| Cc1cc(-c2cc(C(=O)NCc3ccccc3)on2)nc(NCC2CC2)n1 | inconclusive: 0.158 µM [inhibitor, full curve, poor fit] |
| CCCN(CC1CC1)C(=S)Nc1ccc(Oc2ccccc2)cc1 | inconclusive: 0.112 µM [inhibitor, partial curve, poor fit] |
| Cc1noc(/C=C/c2ccco2)c1S(=O)(=O)N1CCC(C(=O)N2CCc3ccccc3C2)CC1 | inconclusive: 35.5 µM [inhibitor, single point] |
| CCC(c1nnnn1Cc1ccco1)N(Cc1cc2cc(OC)ccc2[nH]c1=O)C1CCCCC1 (stereo not drawn) | inconclusive: 28.2 µM [inhibitor, single point] |
| O=C(CCn1cnc2ccccc2c1=O)Nc1ccc2c(c1)OCCO2 | inconclusive: 0.112 µM [inhibitor, partial curve, poor fit] |
| N#CCCn1nc(-c2ccc(Br)cc2)cc1Nc1ccccc1NC(=O)C(F)(F)F | inactive |
| CCn1c(C)nc2cc(C(=O)N/N=C/c3ccccc3C)ccc21 | inconclusive: 7.08 µM [inhibitor, single point] |
| O=C(NCc1ccco1)c1ccc(S(=O)(=O)N2CCOCC2)cc1 | inconclusive: 39.8 µM [inhibitor, single point] |
| Oc1c(Cl)cc(Cl)cc1Sc1cc(Cl)cc(Cl)c1O | active: 25.1 µM and active: 39.8 µM |
| CN=c1scc(-c2cccs2)n1/N=C/c1ccc(O)c(O)c1O | active: 6.31 µM |
| N#CC1=C(N)n2c(s/c(=C\c3cccs3)c2=O)=C(C#N)C1c1cccs1 (stereo not drawn) | inconclusive: 15.8 µM [inhibitor, partial curve] |
| CCCCC[C@H](CC(=O)NO)C(=O)N[C@H](C(=O)N1CCC[C@H]1CO)C(C)C | inconclusive: 0.001 µM [inhibitor, full curve, poor fit] |
| O=C(O)c1ccccc1N/N=C/c1c(Sc2nnnn2-c2ccccc2)nc2ccccn2c1=O | inconclusive: 39.8 µM [inhibitor, single point] |
| CC(C)Oc1ccc(-c2nc(NCC3CCCO3)c3ccccc3n2)cc1 (stereo not drawn) | inconclusive: 39.8 µM [inhibitor, single point] |
| O=c1cc(-c2cccc(O)c2)oc2c(O)c(O)ccc12 | active: 4.47 µM |
| COc1cccc(C(=O)N(Cc2cc3cc(C)ccc3[nH]c2=O)C(C)C)c1 | inconclusive: 35.5 µM [inhibitor, single point] |
| O=C(NCc1ccco1)C(=O)NCC1OCCN1S(=O)(=O)c1cc(F)ccc1F (stereo not drawn) | active: 17.8 µM |
| Cc1cc(C(=O)CSc2ccc(F)cc2)cc(C)c1OC(=S)N(C)C | inconclusive: 31.6 µM [inhibitor, single point] |
| O=C(Nc1ccccc1)c1ccc(-c2ccccc2Cl)o1 | inconclusive: 5.01 µM [inhibitor, full curve] |
| CC(=O)c1ccsc1-c1c(C)cc2oc(=O)cc(-c3ccccc3)c2c1C | active: 22.4 µM |

Individual results from the entries so far.
In Potency, CCCCC[C@H](CC(=O)NO)C(=O)N[C@H](C(=O)N1CCC[C@H]1CO)C(C)C has the entry inconclusive: 0.001 µM [inhibitor, full curve, poor fit]
In Potency, O=C(O)c1ccccc1N/N=C/c1c(Sc2nnnn2-c2ccccc2)nc2ccccn2c1=O has the entry inconclusive: 39.8 µM [inhibitor, single point]

The list continues.

| SMILES | Potency |
| --- | --- |
| O=C(c1ccc(COc2ccccc2Br)o1)N1CCN(c2ccccn2)CC1 | inconclusive: 56.2 µM [inhibitor, partial curve, poor fit] |
| CCOc1ccc(-c2nc(C#N)c(N3CCCCCC3)o2)cc1 | inconclusive: 25.1 µM [inhibitor, partial curve] |
| COc1ccc(-c2nc3cnc(N4CCOCC4)nc3n(-c3ccc(OC)cc3)c2=O)cc1 | inconclusive: 39.8 µM [inhibitor, single point] |
| CC(C)CC1=C/C(=C/c2ccc(-c3ccccc3)o2)C(=O)O1 | active: 25.1 µM |
| CC1=CC(C)(C)N(C(=O)CNC2CCCCC2)c2cc(C)ccc21 | inconclusive: 31.6 µM [inhibitor, single point] |
| NC(=O)[C@@H]1CCCCNc2c(I)cc([N+](=O)[O-])cc2C(=O)N[C@@H](CCC(=O)O)C(=O)N[C@@H](CO)C(=O)N1 | inconclusive: 7.08 µM [inhibitor, full curve] |
| O=C(CSc1ccc(Cl)cc1)N1CCN(c2c(Cl)cccc2[N+](=O)[O-])CC1 | active: 8.91 µM |
| c1ccc(Cn2ncc3ccccc32)cc1 | inconclusive: 0.355 µM [inhibitor, partial curve, poor fit] |
| CS(=O)(=O)N1CCC2(CC1)CN(c1ccccn1)C2 | inactive |
| Cc1ccc(-n2[nH]c(C)c(/C=N/Nc3ccc([N+](=O)[O-])cc3[N+](=O)[O-])c2=O)cc1 | inconclusive: 39.8 µM [inhibitor, single point] |
| O=C(O)CCCc1nc(-c2ccc(Cl)cc2)no1 | inactive |
| Cc1ccc(S(=O)(=O)Nc2ccc(N3CCCCC3)cc2)cc1 | inconclusive: 39.8 µM [inhibitor, single point] |
| Cc1nc2sc(C(c3cccs3)N3CCN(c4ccccc4)CC3)c(O)n2n1 (stereo not drawn) | inconclusive: 3.55 µM [inhibitor, partial curve] |
| Cc1cc(=O)n2nc(-c3ccccc3)sc2n1 | inactive |
| O=C1CSC(=S)N1Cc1cccnc1 | active: 25.1 µM |
| COC(=O)c1ccccc1-c1ccc(/C=N/Nc2nc(N3CCCC3)nc(N3CCCC3)n2)o1 | inconclusive: 22.4 µM [inhibitor, partial curve, poor fit] |
| CCOc1ccccc1Nc1nc(-c2sc(NC(=O)c3cccc(Cl)c3)nc2C)cs1 | inconclusive: 39.8 µM [inhibitor, single point] |
| CCN1CCCC1CNCc1cccc(OC)c1OCc1ccc(F)cc1 (stereo not drawn) | inconclusive: 3.55 µM [inhibitor, partial curve] |
| N#Cc1ccc(-c2ccco2)nc1SCC(=O)c1ccc(Cl)cc1 | inconclusive: 39.8 µM [inhibitor, single point] |
| Cc1ccc(/C=C/C(=O)c2ccc(C)cc2)cc1 | inactive |
| Clc1ccc([C@H](Cn2ccnc2)OCc2c(Cl)cccc2Cl)c(Cl)c1 | inactive |

Source: PubChem BioAssay AID2549 (National Center for Advancing Translational Sciences (NCATS), 2010)
